PMC6339786
No constants are given. Whether binding was seen depends on the method and setting. In cells and extracts the contact can be indirect. Some results given as binding are weak or reduced against the parent protein; the word gives no strength.

Amino acid sequences for entries named in this document (tags omitted). Residues count along the entry.
UniProt P19785: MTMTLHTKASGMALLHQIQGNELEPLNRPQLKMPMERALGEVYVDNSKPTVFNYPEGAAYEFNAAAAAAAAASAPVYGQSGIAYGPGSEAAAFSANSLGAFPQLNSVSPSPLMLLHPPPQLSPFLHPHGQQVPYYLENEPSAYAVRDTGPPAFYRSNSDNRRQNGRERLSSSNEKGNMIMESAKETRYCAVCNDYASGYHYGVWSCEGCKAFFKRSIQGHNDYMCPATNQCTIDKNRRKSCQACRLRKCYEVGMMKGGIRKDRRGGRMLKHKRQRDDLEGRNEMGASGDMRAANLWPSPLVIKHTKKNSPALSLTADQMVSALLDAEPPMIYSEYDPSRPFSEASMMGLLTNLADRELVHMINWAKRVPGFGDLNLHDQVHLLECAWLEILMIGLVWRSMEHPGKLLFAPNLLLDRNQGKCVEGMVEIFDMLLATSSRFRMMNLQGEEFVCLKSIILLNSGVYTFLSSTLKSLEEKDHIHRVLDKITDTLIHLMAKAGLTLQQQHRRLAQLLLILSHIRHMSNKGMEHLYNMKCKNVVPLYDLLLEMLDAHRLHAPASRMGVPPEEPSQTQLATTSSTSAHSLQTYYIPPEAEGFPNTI
UniProt Q60751, residues 31-1373: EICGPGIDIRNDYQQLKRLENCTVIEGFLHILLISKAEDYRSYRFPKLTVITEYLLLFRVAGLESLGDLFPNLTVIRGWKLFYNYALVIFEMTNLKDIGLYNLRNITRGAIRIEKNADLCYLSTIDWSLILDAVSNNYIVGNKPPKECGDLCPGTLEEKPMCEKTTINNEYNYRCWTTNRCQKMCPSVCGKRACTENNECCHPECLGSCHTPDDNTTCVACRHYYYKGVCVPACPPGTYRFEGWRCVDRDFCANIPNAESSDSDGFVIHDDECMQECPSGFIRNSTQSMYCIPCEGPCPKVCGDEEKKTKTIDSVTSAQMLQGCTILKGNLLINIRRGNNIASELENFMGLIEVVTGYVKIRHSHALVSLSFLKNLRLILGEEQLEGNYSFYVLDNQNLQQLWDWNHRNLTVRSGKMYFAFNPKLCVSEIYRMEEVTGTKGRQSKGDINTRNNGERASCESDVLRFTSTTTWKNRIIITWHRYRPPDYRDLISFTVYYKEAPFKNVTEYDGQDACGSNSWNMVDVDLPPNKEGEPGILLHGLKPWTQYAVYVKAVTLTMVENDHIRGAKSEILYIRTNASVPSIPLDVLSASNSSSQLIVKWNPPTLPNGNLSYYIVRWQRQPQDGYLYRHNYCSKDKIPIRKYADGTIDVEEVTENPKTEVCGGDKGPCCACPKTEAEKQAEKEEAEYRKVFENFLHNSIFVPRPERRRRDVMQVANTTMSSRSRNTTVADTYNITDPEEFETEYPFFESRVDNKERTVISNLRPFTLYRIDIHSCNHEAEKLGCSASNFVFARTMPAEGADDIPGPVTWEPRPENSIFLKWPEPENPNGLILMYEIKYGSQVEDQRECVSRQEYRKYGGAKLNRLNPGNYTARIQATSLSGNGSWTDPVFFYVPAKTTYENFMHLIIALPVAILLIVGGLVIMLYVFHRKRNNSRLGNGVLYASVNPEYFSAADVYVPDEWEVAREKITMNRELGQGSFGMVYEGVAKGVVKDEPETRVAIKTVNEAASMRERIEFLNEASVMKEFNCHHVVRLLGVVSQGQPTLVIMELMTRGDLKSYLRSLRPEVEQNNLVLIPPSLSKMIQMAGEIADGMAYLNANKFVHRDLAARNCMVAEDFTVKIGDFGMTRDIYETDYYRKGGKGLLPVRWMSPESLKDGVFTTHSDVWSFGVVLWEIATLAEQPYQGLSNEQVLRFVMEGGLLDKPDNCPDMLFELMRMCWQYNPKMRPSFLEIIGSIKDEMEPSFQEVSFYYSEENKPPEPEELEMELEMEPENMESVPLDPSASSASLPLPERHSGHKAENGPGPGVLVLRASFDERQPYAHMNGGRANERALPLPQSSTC

Columns and labels:
[1] = biological target: E2 α receptor (ERα) (mouse (endogenous in brain endothelial cells)) (UniProt P19785); assay: condition: only brain endothelial cells from middle-aged (9 month-old) female mice; co-IP; immunoprecipitation with anti-ERα, blot for IGF-IR; lysate of cultured brain endothelial cells from middle-aged (9 month-old) female mice, in response to E2; normalised with the antibody used to pull down; non-immune serum as negative control
[2] = biological target: E2 α receptor (ERα) (mouse (endogenous in brain endothelial cells)) (UniProt P19785); assay: co-IP; immunoprecipitation with anti-ERα, blot for IGF-IR; lysate of cultured brain endothelial cells from young (2 month-old) female mice, in response to E2; normalised with the antibody used to pull down; non-immune serum as negative control

binding [1]: no binding
binding [2]: binds
Substance: IGF-I receptor (IGF-IR) (from UniProt Q60751 31-1373)
